Test results reported in the supplement of paper PMC10849652.
The list shows a part of the results.

Protein sequences, listed by entry. Tags and fused reporters are not part of them. Lines headed by an entry give the natural chain unless they say otherwise; changes in a name come on top.
UniProt Q96AQ6: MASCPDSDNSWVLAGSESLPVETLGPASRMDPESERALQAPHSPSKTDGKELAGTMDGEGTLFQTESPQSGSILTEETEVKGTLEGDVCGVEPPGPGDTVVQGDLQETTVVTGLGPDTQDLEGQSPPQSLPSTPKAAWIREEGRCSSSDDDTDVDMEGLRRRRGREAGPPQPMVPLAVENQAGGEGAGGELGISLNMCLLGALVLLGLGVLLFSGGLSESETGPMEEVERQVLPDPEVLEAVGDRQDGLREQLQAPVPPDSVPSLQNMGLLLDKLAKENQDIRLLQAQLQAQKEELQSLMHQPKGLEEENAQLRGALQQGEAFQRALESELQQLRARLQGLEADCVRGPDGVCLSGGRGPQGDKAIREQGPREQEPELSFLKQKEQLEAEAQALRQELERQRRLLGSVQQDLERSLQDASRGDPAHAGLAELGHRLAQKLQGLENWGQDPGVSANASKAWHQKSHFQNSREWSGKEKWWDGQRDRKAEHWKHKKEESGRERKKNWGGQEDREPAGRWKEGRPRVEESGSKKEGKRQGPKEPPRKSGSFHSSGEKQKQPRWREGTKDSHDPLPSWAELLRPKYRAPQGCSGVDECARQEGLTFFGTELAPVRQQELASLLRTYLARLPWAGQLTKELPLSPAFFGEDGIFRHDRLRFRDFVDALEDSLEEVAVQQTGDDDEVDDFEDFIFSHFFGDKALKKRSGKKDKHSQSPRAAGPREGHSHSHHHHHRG
UniProt Q9H2J4: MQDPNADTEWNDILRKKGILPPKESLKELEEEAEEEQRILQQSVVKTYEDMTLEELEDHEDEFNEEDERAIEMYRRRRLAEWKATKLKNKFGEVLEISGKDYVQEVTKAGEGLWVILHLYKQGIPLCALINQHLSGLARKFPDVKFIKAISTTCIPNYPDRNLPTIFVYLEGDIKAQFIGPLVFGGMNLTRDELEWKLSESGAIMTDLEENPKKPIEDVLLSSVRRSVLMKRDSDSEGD
UniProt P22234: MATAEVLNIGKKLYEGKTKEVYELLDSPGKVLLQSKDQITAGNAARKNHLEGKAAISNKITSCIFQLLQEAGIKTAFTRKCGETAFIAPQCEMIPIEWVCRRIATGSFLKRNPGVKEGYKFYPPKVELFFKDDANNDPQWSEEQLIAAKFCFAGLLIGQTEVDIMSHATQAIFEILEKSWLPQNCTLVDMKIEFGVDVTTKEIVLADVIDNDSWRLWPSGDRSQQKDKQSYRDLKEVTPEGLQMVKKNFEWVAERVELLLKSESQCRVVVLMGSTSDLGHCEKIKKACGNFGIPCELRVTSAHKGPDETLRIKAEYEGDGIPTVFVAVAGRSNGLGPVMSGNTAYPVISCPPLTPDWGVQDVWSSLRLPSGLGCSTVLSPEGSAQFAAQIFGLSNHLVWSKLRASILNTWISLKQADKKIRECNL
UniProt Q92968: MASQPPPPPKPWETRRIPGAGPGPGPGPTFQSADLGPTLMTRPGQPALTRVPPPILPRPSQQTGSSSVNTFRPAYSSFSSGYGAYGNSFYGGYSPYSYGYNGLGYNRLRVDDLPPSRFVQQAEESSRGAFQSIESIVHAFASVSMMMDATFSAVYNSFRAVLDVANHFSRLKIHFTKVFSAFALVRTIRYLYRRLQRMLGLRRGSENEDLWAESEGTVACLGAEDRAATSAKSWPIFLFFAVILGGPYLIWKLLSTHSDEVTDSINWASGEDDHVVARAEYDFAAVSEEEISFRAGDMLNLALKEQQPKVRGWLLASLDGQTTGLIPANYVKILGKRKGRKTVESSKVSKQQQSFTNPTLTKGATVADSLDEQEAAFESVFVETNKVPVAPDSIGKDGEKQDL
UniProt Q8N5Y8: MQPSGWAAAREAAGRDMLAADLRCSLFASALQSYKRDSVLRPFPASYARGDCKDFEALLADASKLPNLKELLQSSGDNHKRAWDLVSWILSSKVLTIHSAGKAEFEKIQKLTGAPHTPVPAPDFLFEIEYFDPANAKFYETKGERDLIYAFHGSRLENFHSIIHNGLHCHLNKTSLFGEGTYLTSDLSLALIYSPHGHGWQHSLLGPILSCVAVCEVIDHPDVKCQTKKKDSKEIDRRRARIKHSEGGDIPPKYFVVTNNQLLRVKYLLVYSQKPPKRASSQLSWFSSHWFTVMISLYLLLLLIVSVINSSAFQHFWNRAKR
UniProt P08559, whole entry, looked up: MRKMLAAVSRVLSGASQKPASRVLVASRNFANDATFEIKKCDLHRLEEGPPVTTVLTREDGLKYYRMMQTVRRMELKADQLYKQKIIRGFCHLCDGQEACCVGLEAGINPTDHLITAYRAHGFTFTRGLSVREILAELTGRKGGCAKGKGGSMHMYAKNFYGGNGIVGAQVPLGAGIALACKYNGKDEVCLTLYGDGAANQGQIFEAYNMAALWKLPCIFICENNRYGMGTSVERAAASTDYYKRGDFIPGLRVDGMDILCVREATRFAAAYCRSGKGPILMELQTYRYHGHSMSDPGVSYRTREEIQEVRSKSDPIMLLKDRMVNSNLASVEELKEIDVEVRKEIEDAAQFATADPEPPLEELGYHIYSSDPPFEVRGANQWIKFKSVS
UniProt O00408, whole entry, looked up: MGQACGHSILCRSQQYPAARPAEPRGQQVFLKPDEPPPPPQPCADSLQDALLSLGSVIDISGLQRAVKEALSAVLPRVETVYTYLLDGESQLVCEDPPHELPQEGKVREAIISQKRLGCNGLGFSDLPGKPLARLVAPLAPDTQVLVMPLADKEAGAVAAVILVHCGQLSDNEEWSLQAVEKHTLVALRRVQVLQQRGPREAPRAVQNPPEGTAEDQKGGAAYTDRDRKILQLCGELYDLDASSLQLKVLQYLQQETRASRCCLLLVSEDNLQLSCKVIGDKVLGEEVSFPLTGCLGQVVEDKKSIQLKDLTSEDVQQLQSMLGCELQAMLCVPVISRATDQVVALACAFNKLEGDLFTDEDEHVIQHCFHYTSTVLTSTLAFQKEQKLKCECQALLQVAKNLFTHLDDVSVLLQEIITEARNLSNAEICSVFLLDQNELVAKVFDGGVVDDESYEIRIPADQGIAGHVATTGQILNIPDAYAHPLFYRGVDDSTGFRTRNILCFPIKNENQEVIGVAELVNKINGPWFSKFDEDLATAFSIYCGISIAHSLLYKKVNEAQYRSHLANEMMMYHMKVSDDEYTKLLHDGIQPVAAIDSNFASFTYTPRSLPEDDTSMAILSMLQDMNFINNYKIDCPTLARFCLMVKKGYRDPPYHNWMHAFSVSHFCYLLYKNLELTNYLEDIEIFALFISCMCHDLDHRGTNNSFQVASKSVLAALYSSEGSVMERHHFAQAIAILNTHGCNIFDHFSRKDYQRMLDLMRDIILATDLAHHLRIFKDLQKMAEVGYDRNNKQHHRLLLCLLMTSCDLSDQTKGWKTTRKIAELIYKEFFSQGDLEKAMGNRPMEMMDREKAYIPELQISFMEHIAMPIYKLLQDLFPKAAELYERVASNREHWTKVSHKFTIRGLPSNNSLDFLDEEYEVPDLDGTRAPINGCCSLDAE
UniProt H7BZJ3: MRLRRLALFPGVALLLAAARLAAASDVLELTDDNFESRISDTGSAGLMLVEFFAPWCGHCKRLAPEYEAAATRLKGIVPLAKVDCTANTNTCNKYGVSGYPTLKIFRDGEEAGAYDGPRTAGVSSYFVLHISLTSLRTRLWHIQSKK
UniProt O00623: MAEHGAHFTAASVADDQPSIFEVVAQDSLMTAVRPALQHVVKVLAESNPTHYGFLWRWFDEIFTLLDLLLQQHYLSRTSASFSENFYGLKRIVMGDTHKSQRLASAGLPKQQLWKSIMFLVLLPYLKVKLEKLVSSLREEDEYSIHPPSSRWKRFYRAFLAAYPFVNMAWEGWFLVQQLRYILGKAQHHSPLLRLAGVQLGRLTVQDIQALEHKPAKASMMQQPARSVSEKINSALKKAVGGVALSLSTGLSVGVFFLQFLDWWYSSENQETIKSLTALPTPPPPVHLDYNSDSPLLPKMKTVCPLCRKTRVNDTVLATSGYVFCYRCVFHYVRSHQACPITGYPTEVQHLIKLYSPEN
UniProt Q15102: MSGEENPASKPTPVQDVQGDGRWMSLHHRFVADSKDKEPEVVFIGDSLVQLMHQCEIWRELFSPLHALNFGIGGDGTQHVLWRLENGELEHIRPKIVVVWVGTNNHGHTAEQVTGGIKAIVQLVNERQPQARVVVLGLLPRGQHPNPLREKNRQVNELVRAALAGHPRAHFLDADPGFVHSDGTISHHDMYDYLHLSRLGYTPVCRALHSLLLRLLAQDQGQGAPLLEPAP
UniProt Q9H999: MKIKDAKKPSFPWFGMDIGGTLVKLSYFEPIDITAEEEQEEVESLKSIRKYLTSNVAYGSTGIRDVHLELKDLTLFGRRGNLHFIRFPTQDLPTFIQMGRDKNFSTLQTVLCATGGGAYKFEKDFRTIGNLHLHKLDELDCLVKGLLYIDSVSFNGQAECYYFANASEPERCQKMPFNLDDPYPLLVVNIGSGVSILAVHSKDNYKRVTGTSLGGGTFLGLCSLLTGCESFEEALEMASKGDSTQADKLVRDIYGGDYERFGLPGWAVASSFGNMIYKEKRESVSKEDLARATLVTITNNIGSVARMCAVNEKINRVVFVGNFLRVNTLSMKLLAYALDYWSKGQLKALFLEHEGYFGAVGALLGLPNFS
UniProt O43933: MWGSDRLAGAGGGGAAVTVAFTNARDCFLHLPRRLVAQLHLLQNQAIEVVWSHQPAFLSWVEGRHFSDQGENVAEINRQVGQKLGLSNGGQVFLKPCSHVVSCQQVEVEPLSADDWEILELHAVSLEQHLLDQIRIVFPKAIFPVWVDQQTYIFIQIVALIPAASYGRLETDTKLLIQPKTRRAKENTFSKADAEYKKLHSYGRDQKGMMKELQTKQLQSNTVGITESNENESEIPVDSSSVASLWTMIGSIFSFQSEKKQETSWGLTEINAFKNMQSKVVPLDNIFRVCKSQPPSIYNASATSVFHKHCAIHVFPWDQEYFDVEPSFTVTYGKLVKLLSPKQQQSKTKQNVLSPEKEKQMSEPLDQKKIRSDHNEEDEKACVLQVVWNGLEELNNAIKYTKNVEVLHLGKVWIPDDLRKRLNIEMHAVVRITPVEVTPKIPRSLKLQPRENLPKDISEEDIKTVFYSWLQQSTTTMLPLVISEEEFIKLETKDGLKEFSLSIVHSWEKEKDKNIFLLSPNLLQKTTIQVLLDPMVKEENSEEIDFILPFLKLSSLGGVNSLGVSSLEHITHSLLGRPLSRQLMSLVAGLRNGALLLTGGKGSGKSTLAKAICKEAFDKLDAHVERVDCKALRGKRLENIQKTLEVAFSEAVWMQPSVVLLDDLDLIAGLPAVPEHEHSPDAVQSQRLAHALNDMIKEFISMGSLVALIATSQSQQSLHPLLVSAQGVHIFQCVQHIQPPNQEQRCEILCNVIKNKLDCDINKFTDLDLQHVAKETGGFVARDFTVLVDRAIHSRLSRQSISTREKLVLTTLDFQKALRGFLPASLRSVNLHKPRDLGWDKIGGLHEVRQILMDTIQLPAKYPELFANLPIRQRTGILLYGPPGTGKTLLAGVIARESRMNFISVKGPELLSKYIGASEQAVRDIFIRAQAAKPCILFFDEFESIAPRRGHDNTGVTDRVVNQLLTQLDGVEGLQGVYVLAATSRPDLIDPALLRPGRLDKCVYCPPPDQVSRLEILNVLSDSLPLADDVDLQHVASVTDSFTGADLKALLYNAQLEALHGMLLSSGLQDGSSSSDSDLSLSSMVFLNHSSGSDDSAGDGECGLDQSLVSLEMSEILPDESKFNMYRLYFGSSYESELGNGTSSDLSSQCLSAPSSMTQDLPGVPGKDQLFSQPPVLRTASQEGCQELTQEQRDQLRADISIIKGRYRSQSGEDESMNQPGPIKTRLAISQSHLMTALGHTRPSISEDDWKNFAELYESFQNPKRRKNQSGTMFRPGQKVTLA
UniProt Q6L8Q7: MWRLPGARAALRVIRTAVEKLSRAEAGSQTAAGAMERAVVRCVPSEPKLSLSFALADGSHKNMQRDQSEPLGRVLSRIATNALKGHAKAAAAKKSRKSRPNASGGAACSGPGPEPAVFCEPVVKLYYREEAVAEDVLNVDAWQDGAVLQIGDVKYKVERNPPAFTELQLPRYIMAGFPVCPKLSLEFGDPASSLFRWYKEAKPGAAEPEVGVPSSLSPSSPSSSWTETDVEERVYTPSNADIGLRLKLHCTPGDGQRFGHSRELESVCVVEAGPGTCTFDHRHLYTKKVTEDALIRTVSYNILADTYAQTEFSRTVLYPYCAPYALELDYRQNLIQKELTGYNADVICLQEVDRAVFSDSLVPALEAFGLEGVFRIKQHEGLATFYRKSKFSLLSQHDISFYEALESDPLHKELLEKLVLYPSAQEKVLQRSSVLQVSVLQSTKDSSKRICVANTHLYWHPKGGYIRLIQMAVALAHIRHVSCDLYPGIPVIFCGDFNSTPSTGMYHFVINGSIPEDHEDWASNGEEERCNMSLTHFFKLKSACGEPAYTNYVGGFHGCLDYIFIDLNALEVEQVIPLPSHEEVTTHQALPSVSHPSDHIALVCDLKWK

What was measured:
Test in all cases: log2 fold change, soluble protein after heating vs DMSO (PISA); higher = thermal stabilisation; K562 cells, 10 uM, 30 min; active = over 0.2 and 3.5 SD of the protein, either way, in both replicates (recomputed)
[1] = compound: CC1=C(C=C(C=C1)NC(=O)C2=CC(=CC=C2)C(C)(C)C#N)NC3=CC4=C(C=C3)N=CN(C4=O)C
Method in brief: (§1)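 K562 cells at 2×10^6 cells/mL were exposed to 10 μM compound for 30 min, then aliquots were heated for 3 min across 48°C-58°C, pooled, and extracted in PBS containing 0.5% NP-40 at 4°C. The supernatant after 21,000xg for 90 min was taken as soluble protein and measured by TMTpro 16plex LC-MS/MS with channel sums equalised. Thermal stability is reported relative to control samples, with values from duplicates. Fold changes are given on a log2 scale.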

[2] = compound: CC1=C(C=C(C=C1)NC(=O)C2=CC(=CC=C2)N(C)C)NC(=O)C3=CC=C(C=C3)O
Method in brief: as §1

[3] = compound: CC1=CC=C(C=C1)SC2=C3C=C(SC3=CN=C2)C(=O)N
Method in brief: as §1

[4] = compound: CC1=NC(=CC=C1)C2=C(N=C(N2)C(C)(C)C)C3=CC4=NC=CN=C4C=C3
Method in brief: as §1

Nexturastat A = compound: CCCCN(Cc1ccc(C(=O)NO)cc1)C(=O)Nc1ccccc1 [Nexturastat A]
Method in brief: as §1

vemurafenib = compound: CCCS(=O)(=O)Nc1ccc(F)c(C(=O)c2c[nH]c3ncc(-c4ccc(Cl)cc4)cc23)c1F [vemurafenib]
Method in brief: as §1

[5] = compound: CCCS(=O)(=O)Nc1ccc(F)c(C(=O)c2c[nH]c3ncc(Cl)cc23)c1F
Method in brief: as §1

[6] = compound: CCCc1cc(C)[nH]c(=O)c1CNC(=O)c1cc(-c2ccnc(N3CCN(C)CC3)c2)cc2c1cnn2C(C)C
Method in brief: as §1

givinostat = compound: CCN(CC)Cc1ccc2cc(COC(=O)Nc3ccc(C(=O)NO)cc3)ccc2c1 [givinostat]
Method in brief: as §1

barasertib = compound: CCN(CCCOc1ccc2c(Nc3cc(CC(=O)Nc4cccc(F)c4)[nH]n3)ncnc2c1)CCOP(=O)(O)O [barasertib]
Method in brief: as §1

Measured: log2 fold change

PDE4DIP isoform 4 (UniProt Q5VU43)
active: Nexturastat A 0.358
inactive: [1] -0.027 | [2] -0.049 | [3] -0.012 | [4] -0.044 | vemurafenib -0.034 | [5] -0.01 | [6] -0.023 | givinostat 0.021 | barasertib 0.083

PARD6B (UniProt Q9BYG5)
inactive: [1] -0.215 | [2] -0.02 | [3] 0.05 | [4] -0.075 | Nexturastat A 0.046 | vemurafenib 0.003 | [5] 0.081 | [6] -0.105 | givinostat 0.125 | barasertib 0.002

PBXIP1 (UniProt Q96AQ6)
inactive: [1] -0.003 | [2] -0.012 | [3] 0.027 | [4] -0.032 | Nexturastat A 0.018 | vemurafenib -0.046 | [5] -0.041 | [6] -0.011 | givinostat 0.011 | barasertib -0.022

PELO (UniProt Q9BRX2)
inactive: [1] -0.005 | [2] -0.051 | [3] 0.042 | [4] -0.039 | Nexturastat A 0.161 | vemurafenib -0.13 | [5] 0.007 | [6] 0.055 | givinostat 0.192 | barasertib 0.045

PDCL3 (UniProt Q9H2J4)
inactive: [1] 0.002 | [2] 0.037 | [3] 0.041 | [4] 0 | Nexturastat A 0.038 | vemurafenib -0.003 | [5] 0.057 | [6] -0.006 | givinostat 0.018 | barasertib -0.005

PAICS (UniProt P22234)
inactive: [1] 0.01 | [2] 0.012 | [3] -0.036 | [4] 0.007 | Nexturastat A -0.066 | vemurafenib -0.038 | [5] -0.073 | [6] -0.001 | givinostat -0.041 | barasertib 0.02

PEX13 (UniProt Q92968)
inactive: [1] 0.052 | [2] -0.101 | [3] 0.033 | [4] -0.02 | Nexturastat A 0.116 | vemurafenib -0.033 | [5] 0.033 | [6] -0.142 | givinostat -0.034 | barasertib 0.044

PCYOX1 (UniProt Q9UHG3)
inactive: [1] 0.053 | [2] 0.015 | [3] 0.042 | [4] 0.034 | Nexturastat A -0.075 | vemurafenib -0.014 | [5] 0.018 | [6] -0.018 | givinostat 0.056 | barasertib -0.028

PARP16 isoform 3 (UniProt Q8N5Y8)
active: [3] 0.298
inactive: [1] 0.066 | [4] 0 | Nexturastat A 0.022 | vemurafenib -0.06 | [5] 0.132 | [6] -0.016 | givinostat 0.04 | barasertib 0.032

PCYT1A (UniProt P49585)
inactive: [1] -0.049 | [2] -0.038 | [3] -0.045 | [4] 0.035 | Nexturastat A -0.034 | vemurafenib 0.052 | [5] 0.043 | [6] -0.092 | givinostat -0.024 | barasertib 0.044

PCYOX1L (UniProt Q8NBM8)
inactive: [1] -0.033 | [2] -0.039 | [3] -0.043 | [4] -0.03 | Nexturastat A -0.06 | vemurafenib 0.021 | [5] 0.005 | [6] 0.015 | givinostat -0.027 | barasertib 0.004

PDHA1 isoform 4 (UniProt P08559)
inactive: [1] 0.06 | [2] -0.032 | [3] -0.029 | [4] -0.062 | Nexturastat A 0.172 | vemurafenib -0.064 | [5] -0.047 | [6] 0.102 | givinostat 0.051 | barasertib -0.026

PDE2A (UniProt O00408)
inactive: [1] -0.041 | [2] 0.007 | [3] 0.041 | [4] -0.019 | Nexturastat A -0.054 | vemurafenib 0.013 | [5] 0.036 | [6] -0.012 | givinostat -0.043 | barasertib 0.011

PDIA3 (UniProt H7BZJ3)
inactive: [1] -0.16 | [3] -0.129 | [4] -0.175 | Nexturastat A 0.091 | vemurafenib -0.184 | [5] -0.222 | [6] 0.024 | givinostat 0.123 | barasertib 0.033

PEX12 (UniProt O00623)
inactive: [1] -0.001 | [2] -0.037 | [3] 0.012 | [4] 0.117 | Nexturastat A -0.07 | vemurafenib -0.066 | [5] -0.031 | [6] -0.034 | givinostat 0.02 | barasertib 0.009

PDSS2 (UniProt Q86YH6)
inactive: [1] -0.215 | [2] 0.017 | [3] 0.093 | [4] -0.083 | Nexturastat A -0.126 | vemurafenib -0.03 | [5] 0.244 | givinostat -0.046 | barasertib 0.027

PALMD (UniProt Q9NP74)
inactive: [1] -0.177 | [2] 0.041 | [3] -0.019 | [4] -0.014 | Nexturastat A -0.074 | vemurafenib 0.022 | [5] -0.022 | [6] 0.024 | givinostat -0.021 | barasertib -0.041

PAFAH1B3 (UniProt Q15102)
inactive: [1] 0 | [2] -0.096 | [3] 0.098 | [4] 0.03 | Nexturastat A 0.019 | vemurafenib -0.014 | [5] -0.012 | [6] 0.005 | givinostat -0.022 | barasertib 0.035

PANK1 (UniProt Q8TE04)
inactive: [1] -0.03 | [2] 0.02 | [3] 0.003 | Nexturastat A -0.085 | vemurafenib 0.026 | [5] -0.011 | [6] 0.031 | givinostat 0.039 | barasertib 0.021

PANK3 (UniProt Q9H999)
inactive: [1] 0.048 | [2] 0.072 | [3] 0.04 | Nexturastat A -0.063 | [5] 0.138 | givinostat -0.025 | barasertib 0.028

PEX1 (UniProt O43933)
inactive: [1] -0.025 | [2] -0.036 | [3] -0.027 | [4] 0.007 | Nexturastat A 0.075 | vemurafenib 0.035 | [5] -0.04 | [6] 0.002 | givinostat -0.006 | barasertib 0.013

PDLIM7 (UniProt Q9NR12)
inactive: [1] 0.02 | [2] -0.029 | [3] -0.002 | [4] 0.046 | Nexturastat A -0.016 | vemurafenib 0.026 | [5] 0.032 | [6] 0.001 | givinostat 0.05 | barasertib 0.032

PDE12 (UniProt Q6L8Q7)
inactive: [1] 0.049 | [2] 0.006 | [3] 0.024 | [4] 0.026 | Nexturastat A -0.064 | vemurafenib -0.006 | [5] 0.03 | [6] -0.01 | givinostat -0.027 | barasertib 0.014

Reprinted from the entries so far (2 entries):
PCYT1A (UniProt P49585)
inactive: [1] -0.049 | [2] -0.038 | [3] -0.045 | [4] 0.035 | Nexturastat A -0.034 | vemurafenib 0.052 | [5] 0.043 | [6] -0.092 | givinostat -0.024 | barasertib 0.044

PCYOX1L (UniProt Q8NBM8)
inactive: [1] -0.033 | [2] -0.039 | [3] -0.043 | [4] -0.03 | Nexturastat A -0.06 | vemurafenib 0.021 | [5] 0.005 | [6] 0.015 | givinostat -0.027 | barasertib 0.004
